Earlier results in patent EP4640213A1, “ORAL PHARMACEUTICAL PREPARATION COMPRISING SODIUM-GLUCOSE COTRANSPORTER-2 INHIBITOR AND ANGIOTENSIN II RECEPTOR BLOCKER” (THPharm Corp., priority 2022, dated 2024).

Details: background art; cited from earlier work

In the case of `CCCc1nc2c(C)cc(-c3nc4ccccc4n3C)cc2n1Cc1ccc(-c2ccccc2C(=O)O)cc1` [Telmisartan, 4'-[(1,4'-dimethyl-2'-propyl[2,6'-bi-1H-benzimidazol]-1'-yl)methyl][1,1'-biphenyl]-2-carboxylic acid], the “difference in solubility by pH” value is given as no less than 100 times.
